According to the supplement of paper PMC12823440, “Inhibitors supercharge kinase turnover through native proteolytic circuits” (Nature, 2025):
This is one part of the list. The calls rarely recur for the same compound in another form.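 Kinases were expressed as nanoluciferase fusions in K562 cells and luminescence was read every 4 h between 2 and 18 h as percent of control, DMSO set to 100% and a positive control to 0%. A time point counts as decreased when the signal drops significantly (2 sigma). The hit call is the authors' own, does not follow from the count of time points alone, and its rule is not shown.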

By UniProt entry, the sequences of proteins in these tests, tags left out. Where a name states a change or a piece, a line headed by the entry shows the natural chain unless it says otherwise.
UniProt P50613: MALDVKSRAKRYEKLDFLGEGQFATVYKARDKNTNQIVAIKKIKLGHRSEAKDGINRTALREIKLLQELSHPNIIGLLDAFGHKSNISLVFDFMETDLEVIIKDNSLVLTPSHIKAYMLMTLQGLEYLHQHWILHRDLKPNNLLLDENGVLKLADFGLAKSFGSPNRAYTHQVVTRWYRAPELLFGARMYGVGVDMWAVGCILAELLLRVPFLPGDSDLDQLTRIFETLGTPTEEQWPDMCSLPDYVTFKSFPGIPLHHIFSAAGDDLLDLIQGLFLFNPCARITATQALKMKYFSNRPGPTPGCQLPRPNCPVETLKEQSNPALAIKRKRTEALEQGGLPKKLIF
UniProt O96017, whole entry: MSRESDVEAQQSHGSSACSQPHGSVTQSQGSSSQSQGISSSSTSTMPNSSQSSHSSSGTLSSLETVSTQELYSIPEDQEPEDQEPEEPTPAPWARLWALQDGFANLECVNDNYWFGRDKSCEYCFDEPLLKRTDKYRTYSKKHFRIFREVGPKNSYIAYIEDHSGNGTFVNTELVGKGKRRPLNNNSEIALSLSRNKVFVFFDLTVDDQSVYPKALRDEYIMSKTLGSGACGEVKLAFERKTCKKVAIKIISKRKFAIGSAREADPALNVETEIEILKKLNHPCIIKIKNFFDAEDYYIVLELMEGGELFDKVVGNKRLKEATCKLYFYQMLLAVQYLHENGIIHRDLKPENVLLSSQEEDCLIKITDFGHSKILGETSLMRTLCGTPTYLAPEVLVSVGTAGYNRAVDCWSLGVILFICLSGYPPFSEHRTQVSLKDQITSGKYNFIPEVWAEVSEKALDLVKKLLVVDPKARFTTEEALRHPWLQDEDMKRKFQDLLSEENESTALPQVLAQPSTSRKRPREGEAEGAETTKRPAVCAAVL
UniProt P07333, whole entry: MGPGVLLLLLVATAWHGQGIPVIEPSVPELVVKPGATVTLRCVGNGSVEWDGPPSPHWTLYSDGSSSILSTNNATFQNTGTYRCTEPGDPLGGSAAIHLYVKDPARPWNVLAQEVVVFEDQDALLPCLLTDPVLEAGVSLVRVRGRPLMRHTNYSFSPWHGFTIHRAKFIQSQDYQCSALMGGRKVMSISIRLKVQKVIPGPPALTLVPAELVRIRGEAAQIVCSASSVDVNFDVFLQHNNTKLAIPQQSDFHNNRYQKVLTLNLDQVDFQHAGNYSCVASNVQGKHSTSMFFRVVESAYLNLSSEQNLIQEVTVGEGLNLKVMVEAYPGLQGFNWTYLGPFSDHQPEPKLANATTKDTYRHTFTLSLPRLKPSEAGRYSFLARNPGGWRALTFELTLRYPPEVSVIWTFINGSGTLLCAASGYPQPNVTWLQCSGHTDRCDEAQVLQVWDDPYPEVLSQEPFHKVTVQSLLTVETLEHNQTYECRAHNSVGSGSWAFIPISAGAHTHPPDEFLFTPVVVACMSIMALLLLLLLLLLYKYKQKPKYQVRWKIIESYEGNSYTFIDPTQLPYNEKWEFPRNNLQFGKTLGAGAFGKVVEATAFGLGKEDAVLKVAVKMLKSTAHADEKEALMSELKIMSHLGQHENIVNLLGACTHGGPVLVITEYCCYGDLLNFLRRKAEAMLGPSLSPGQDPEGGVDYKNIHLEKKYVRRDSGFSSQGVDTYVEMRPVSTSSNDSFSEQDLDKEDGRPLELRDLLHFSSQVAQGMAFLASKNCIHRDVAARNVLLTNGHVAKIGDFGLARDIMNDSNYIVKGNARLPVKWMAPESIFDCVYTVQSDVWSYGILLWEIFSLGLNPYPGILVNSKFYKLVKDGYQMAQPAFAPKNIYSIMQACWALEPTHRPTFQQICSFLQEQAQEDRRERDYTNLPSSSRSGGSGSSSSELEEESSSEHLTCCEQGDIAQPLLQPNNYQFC
UniProt P41240: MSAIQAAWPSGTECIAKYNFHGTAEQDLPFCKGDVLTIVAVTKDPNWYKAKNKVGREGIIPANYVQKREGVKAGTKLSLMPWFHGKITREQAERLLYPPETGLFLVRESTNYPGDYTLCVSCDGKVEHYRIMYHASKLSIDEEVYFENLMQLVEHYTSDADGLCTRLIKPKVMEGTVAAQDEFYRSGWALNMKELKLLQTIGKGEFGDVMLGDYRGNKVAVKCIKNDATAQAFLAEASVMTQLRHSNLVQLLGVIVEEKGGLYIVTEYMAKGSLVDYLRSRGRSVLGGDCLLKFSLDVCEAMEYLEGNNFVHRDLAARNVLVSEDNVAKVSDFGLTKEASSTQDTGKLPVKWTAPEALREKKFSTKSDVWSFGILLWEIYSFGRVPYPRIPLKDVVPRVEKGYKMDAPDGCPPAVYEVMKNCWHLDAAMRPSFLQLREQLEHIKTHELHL
UniProt P48730: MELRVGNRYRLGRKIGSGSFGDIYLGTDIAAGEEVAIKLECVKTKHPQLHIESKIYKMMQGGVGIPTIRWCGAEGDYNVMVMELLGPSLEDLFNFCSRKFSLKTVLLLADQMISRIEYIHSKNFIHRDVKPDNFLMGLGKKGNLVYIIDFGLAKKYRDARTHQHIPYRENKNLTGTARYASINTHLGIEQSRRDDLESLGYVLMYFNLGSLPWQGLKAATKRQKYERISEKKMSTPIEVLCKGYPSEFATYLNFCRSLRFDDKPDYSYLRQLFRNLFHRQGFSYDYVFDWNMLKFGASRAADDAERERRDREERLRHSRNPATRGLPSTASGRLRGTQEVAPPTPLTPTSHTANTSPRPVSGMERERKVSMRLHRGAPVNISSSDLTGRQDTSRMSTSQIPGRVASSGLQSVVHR
UniProt Q08345: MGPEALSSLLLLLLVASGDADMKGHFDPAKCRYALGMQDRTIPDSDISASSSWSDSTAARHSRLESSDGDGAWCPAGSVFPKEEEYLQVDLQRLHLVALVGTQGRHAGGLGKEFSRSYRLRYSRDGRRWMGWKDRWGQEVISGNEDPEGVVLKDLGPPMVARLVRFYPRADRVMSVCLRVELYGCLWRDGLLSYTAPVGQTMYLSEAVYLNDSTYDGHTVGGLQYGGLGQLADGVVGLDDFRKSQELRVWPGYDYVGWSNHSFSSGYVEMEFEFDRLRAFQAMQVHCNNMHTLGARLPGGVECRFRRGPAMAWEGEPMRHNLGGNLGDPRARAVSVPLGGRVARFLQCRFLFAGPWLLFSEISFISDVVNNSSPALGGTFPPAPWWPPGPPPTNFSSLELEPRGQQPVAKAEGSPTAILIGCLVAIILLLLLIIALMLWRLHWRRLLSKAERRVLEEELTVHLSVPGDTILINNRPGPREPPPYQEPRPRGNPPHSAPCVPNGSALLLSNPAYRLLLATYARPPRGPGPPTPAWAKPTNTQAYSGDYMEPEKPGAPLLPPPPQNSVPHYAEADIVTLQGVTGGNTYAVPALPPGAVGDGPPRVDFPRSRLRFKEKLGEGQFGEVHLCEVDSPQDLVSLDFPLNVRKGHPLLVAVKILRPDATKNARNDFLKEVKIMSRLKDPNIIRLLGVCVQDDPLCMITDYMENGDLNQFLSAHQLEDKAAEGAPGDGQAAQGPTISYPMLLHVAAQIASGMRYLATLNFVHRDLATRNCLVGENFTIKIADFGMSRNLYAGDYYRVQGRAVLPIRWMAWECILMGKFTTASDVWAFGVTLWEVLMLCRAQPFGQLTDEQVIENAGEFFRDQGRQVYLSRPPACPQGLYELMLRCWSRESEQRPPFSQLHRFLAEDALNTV
UniProt Q92630: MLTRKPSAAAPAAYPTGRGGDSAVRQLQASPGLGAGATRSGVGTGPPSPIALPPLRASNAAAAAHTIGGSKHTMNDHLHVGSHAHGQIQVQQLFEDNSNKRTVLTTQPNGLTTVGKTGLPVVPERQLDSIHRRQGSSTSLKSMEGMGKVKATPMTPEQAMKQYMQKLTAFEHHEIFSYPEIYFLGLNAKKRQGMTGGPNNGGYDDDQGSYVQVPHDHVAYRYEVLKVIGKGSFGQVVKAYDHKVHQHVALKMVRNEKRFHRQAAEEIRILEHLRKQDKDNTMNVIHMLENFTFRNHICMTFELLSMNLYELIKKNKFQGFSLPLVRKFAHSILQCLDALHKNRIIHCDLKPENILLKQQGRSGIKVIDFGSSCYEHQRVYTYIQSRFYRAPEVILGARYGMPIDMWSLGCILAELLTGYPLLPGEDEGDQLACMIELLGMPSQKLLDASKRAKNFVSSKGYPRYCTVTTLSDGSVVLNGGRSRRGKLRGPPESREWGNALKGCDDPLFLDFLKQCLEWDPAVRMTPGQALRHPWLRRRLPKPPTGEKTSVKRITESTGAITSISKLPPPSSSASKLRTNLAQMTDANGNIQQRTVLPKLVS
UniProt P29317, whole entry: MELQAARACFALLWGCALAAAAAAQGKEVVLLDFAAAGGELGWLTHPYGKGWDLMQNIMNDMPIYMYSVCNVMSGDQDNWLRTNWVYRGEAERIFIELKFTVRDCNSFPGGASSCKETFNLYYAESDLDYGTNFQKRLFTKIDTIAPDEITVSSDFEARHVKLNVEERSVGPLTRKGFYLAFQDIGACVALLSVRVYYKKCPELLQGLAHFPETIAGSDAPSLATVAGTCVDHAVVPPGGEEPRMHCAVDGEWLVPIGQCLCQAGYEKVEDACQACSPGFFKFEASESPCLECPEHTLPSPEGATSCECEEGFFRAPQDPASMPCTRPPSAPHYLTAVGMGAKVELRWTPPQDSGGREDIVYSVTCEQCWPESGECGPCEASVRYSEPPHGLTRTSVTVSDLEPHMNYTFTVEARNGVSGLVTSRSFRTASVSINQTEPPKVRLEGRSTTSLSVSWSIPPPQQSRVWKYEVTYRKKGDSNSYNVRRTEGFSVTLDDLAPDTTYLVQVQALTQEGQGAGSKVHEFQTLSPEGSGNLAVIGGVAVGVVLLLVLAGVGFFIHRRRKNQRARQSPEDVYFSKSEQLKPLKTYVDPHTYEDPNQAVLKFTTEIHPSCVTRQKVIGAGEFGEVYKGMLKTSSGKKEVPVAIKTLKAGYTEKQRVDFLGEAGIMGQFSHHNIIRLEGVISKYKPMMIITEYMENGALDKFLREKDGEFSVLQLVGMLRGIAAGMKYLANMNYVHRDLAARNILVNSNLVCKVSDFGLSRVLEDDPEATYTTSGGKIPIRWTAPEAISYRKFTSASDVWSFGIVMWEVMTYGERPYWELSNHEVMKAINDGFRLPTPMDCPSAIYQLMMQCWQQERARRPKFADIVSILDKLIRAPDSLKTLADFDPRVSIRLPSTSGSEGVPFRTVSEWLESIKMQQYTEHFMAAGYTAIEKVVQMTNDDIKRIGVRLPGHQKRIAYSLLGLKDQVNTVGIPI
UniProt Q15303, whole entry R711C: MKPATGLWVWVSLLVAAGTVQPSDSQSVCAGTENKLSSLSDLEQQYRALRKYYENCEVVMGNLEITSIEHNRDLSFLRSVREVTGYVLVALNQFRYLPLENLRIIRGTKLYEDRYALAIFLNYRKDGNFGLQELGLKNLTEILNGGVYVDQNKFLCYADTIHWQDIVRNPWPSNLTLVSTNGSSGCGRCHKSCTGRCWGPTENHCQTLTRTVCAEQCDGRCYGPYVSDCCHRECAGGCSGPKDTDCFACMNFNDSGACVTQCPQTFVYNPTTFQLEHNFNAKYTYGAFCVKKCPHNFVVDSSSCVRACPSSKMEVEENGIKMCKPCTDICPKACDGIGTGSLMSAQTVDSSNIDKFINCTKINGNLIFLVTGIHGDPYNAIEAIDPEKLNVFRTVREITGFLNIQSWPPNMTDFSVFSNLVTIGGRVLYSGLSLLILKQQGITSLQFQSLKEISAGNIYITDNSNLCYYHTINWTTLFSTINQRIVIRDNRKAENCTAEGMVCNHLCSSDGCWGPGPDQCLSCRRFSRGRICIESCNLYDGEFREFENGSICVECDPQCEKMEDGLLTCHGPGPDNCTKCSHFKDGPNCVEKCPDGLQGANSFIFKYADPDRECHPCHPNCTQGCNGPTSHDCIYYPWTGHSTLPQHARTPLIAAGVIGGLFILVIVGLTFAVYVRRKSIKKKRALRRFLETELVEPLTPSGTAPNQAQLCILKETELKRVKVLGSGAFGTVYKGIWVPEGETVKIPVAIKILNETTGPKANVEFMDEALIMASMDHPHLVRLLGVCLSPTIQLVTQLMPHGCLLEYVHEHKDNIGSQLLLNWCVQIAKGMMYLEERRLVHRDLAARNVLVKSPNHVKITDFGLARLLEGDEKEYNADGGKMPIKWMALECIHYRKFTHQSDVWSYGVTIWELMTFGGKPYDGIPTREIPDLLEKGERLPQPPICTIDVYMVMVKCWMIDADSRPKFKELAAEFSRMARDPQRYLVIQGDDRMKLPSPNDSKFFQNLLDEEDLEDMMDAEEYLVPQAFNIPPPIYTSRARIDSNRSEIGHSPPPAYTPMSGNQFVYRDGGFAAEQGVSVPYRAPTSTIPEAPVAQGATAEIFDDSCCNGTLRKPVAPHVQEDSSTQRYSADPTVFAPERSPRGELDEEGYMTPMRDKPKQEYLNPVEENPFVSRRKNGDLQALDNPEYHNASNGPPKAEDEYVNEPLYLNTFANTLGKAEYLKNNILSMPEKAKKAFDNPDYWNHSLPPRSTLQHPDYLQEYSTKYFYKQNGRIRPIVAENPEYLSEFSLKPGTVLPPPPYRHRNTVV

Experiments:
Assay in all cases: kinase-Nluc reporter destabilization hit call (1 = scored as downregulated) (binary); higher = compound decreases kinase abundance
Conditions in all cases: K562; 2-18 h
[1] = target: CDK7 (UniProt P50613)
[2] = target: CDK9 (UniProt P50750)
[3] = target: CHEK2 (UniProt O96017)
[4] = target: CSF1R (UniProt P07333)
[5] = target: CSK (UniProt P41240)
[6] = target: CSNK1A1 (UniProt P48729)
[7] = target: CSNK1D (UniProt P48730)
[8] = target: DDR1 (UniProt Q08345)
[9] = target: DYRK1B (UniProt Q9Y463)
[10] = target: DYRK2 (UniProt Q92630)
[11] = target: EGFR (UniProt P00533)
[12] = target: EGFR_G719S (UniProt P00533)
[13] = target: EGFR_G719S_T790M (UniProt P00533)
[14] = target: EGFR_L718V (UniProt P00533)
[15] = target: EGFR_L858R (UniProt P00533)
[16] = target: EGFR_L861Q (UniProt P00533)
[17] = target: EGFR_T790M (UniProt P00533)
[18] = target: EPHA2 (UniProt P29317)
[19] = target: ERBB3 (UniProt P21860)
[20] = target: ERBB4_R711C (clone: ERBB4_mut) (UniProt Q15303)

Measured: kinase-Nluc reporter destabilization hit call

COc1cc2ncnc(Nc3ccc(Cl)cc3F)c2cc1OC (10 µM)
inactive: [1] 0 | [2] 0 | [3] 0 | [4] 0 | [5] 0 | [6] 0 | [7] 0 | [8] 0 | [9] 0 | [10] 0 | [11] 0 | [12] 0 | [13] 0 | [14] 0 | [15] 0 | [16] 0 | [17] 0 | [18] 0 | [19] 0 | [20] 0

C=C1C(=O)O[C@H]2C[C@H](C)C(/C=C/C(C)=O)=CC[C@H]12 [Xanthatin] (2.5 µM)
inactive: [1] 0 | [2] 0 | [3] 0 | [4] 0 | [5] 0 | [6] 0 | [7] 0 | [8] 0 | [9] 0 | [10] 0 | [11] 0 | [12] 0 | [13] 0 | [14] 0 | [15] 0 | [16] 0 | [17] 0 | [18] 0 | [19] 0 | [20] 0

O=Nc1c(-c2c(O)[nH]c3ccc(F)cc23)[nH]c2ccccc12 [5'-Fluoroindirubinoxime] (10 µM)
inactive: [1] 0 | [2] 0 | [3] 0 | [4] 0 | [5] 0 | [6] 0 | [7] 0 | [8] 0 | [9] 0 | [10] 0 | [11] 0 | [12] 0 | [13] 0 | [14] 0 | [15] 0 | [16] 0 | [17] 0 | [18] 0 | [19] 0 | [20] 0

C=CC(=O)Nc1ccc(CN2C(=O)N(c3cc(OC)cc(OC)c3)Cc3cnc(Nc4ccc(N5CCN(C)CC5)cc4)nc32)cc1 (2.5 µM)
inactive: [1] 0 | [2] 0 | [3] 0 | [4] 0 | [5] 0 | [6] 0 | [7] 0 | [8] 0 | [9] 0 | [10] 0 | [11] 0 | [12] 0 | [13] 0 | [14] 0 | [15] 0 | [16] 0 | [17] 0 | [18] 0 | [19] 0 | [20] 0

Cc1nc2sccn2c(=O)c1CCN1CCC(=C(c2ccccc2)c2ccc(F)cc2)CC1 (10 µM)
inactive: [1] 0 | [2] 0 | [3] 0 | [4] 0 | [5] 0 | [6] 0 | [7] 0 | [8] 0 | [9] 0 | [10] 0 | [11] 0 | [12] 0 | [13] 0 | [14] 0 | [15] 0 | [16] 0 | [17] 0 | [18] 0 | [19] 0 | [20] 0

Nc1ncnc2c1c(-c1cccc(OCc3ccccc3)c1)cn2C1CC(CN2CCC2)C1 (stereo not given) (2.5 µM)
inactive: [1] 0 | [2] 0 | [3] 0 | [4] 0 | [5] 0 | [6] 0 | [7] 0 | [8] 0 | [9] 0 | [10] 0 | [11] 0 | [12] 0 | [13] 0 | [14] 0 | [15] 0 | [16] 0 | [17] 0 | [18] 0 | [19] 0 | [20] 0

Cc1c(-c2c(F)cc(C(N)=O)c3[nH]c4c(c23)CC[C@H](C(C)(C)O)C4)cccc1-n1c(=O)c2cccc(F)c2n(C)c1=O (2.5 µM)
inactive: [1] 0 | [2] 0 | [3] 0 | [4] 0 | [5] 0 | [6] 0 | [7] 0 | [8] 0 | [9] 0 | [10] 0 | [11] 0 | [12] 0 | [13] 0 | [14] 0 | [15] 0 | [16] 0 | [17] 0 | [18] 0 | [19] 0 | [20] 0

COc1ccc2c(OCc3nnc4ccc(-c5ccccc5)nn34)ccnc2c1 (2 µM)
inactive: [1] 0 | [2] 0 | [3] 0 | [4] 0 | [5] 0 | [6] 0 | [7] 0 | [8] 0 | [9] 0 | [10] 0 | [11] 0 | [12] 0 | [13] 0 | [14] 0 | [15] 0 | [16] 0 | [17] 0 | [18] 0 | [19] 0 | [20] 0

Cc1cccc(-c2[nH]ncc2-c2ccc(F)c(-c3cnn(CCO)c3)c2)n1 (10 µM)
inactive: [1] 0 | [2] 0 | [3] 0 | [4] 0 | [5] 0 | [6] 0 | [7] 0 | [8] 0 | [9] 0 | [10] 0 | [11] 0 | [12] 0 | [13] 0 | [14] 0 | [15] 0 | [16] 0 | [17] 0 | [18] 0 | [19] 0 | [20] 0

Cc1nc(-c2cn3c(n2)-c2ccc(-c4cnn(C(C)(C)C(N)=O)c4)cc2OCC3)n(C(C)C)n1 [Taselisib] (10 µM)
inactive: [1] 0 | [2] 0 | [3] 0 | [4] 0 | [5] 0 | [6] 0 | [7] 0 | [8] 0 | [9] 0 | [10] 0 | [11] 0 | [12] 0 | [13] 0 | [14] 0 | [15] 0 | [16] 0 | [17] 0 | [18] 0 | [19] 0 | [20] 0

Part of the list above in order of formula weight, smallest number first:
COc1ccc2c(OCc3nnc4ccc(-c5ccccc5)nn34)ccnc2c1 (2 µM)
inactive: [1] 0 | [2] 0 | [3] 0 | [4] 0 | [5] 0 | [6] 0 | [7] 0 | [8] 0 | [9] 0 | [10] 0 | [11] 0 | [12] 0 | [13] 0 | [14] 0 | [15] 0 | [16] 0 | [17] 0 | [18] 0 | [19] 0 | [20] 0

Cc1nc2sccn2c(=O)c1CCN1CCC(=C(c2ccccc2)c2ccc(F)cc2)CC1 (10 µM)
inactive: [1] 0 | [2] 0 | [3] 0 | [4] 0 | [5] 0 | [6] 0 | [7] 0 | [8] 0 | [9] 0 | [10] 0 | [11] 0 | [12] 0 | [13] 0 | [14] 0 | [15] 0 | [16] 0 | [17] 0 | [18] 0 | [19] 0 | [20] 0

Cc1nc(-c2cn3c(n2)-c2ccc(-c4cnn(C(C)(C)C(N)=O)c4)cc2OCC3)n(C(C)C)n1 [Taselisib] (10 µM)
inactive: [1] 0 | [2] 0 | [3] 0 | [4] 0 | [5] 0 | [6] 0 | [7] 0 | [8] 0 | [9] 0 | [10] 0 | [11] 0 | [12] 0 | [13] 0 | [14] 0 | [15] 0 | [16] 0 | [17] 0 | [18] 0 | [19] 0 | [20] 0

More records follow:

Cc1cc2ncc(-c3ccc(O)c(O)c3)nc2cc1C [Tyrphostin AG1433] (10 µM)
inactive: [1] 0 | [2] 0 | [3] 0 | [4] 0 | [5] 0 | [6] 0 | [7] 0 | [8] 0 | [9] 0 | [10] 0 | [11] 0 | [12] 0 | [13] 0 | [14] 0 | [15] 0 | [16] 0 | [17] 0 | [18] 0 | [19] 0 | [20] 0

NC(=O)c1ccc(-c2nc(-c3ccc4c(c3)OCCO4)c(-c3ccccn3)[nH]2)cc1 (10 µM)
inactive: [1] 0 | [2] 0 | [3] 0 | [4] 0 | [5] 0 | [6] 0 | [7] 0 | [8] 0 | [9] 0 | [10] 0 | [11] 0 | [12] 0 | [13] 0 | [14] 0 | [15] 0 | [16] 0 | [17] 0 | [18] 0 | [19] 0 | [20] 0

CCC(C)N1c2ccccc2C(=O)N(C)c2cnc(Nc3ccc(C(=O)N4CCC(N5CCN(C)CC5)CC4)cc3OC)nc21 (stereo not given) (2.5 µM)
inactive: [1] 0 | [2] 0 | [3] 0 | [4] 0 | [5] 0 | [6] 0 | [7] 0 | [8] 0 | [9] 0 | [10] 0 | [11] 0 | [12] 0 | [13] 0 | [14] 0 | [15] 0 | [16] 0 | [17] 0 | [18] 0 | [19] 0 | [20] 0

Cn1cnc2c(F)c(Nc3ccc(Br)cc3Cl)c(C(=O)NOCCO)cc21 [Selumetinib (sulfate)] (10 µM)
inactive: [1] 0 | [2] 0 | [3] 0 | [4] 0 | [5] 0 | [6] 0 | [7] 0 | [8] 0 | [9] 0 | [10] 0 | [11] 0 | [12] 0 | [13] 0 | [14] 0 | [15] 0 | [16] 0 | [17] 0 | [18] 0 | [19] 0 | [20] 0

Cn1cc(-c2cnn3c(N)c(Br)c([C@@H]4CCCNC4)nc23)cn1 (2.5 µM)
inactive: [1] 0 | [2] 0 | [3] 0 | [4] 0 | [5] 0 | [6] 0 | [7] 0 | [8] 0 | [9] 0 | [10] 0 | [11] 0 | [12] 0 | [13] 0 | [14] 0 | [15] 0 | [16] 0 | [17] 0 | [18] 0 | [19] 0 | [20] 0

CNC(=O)c1ccc(C)c(-n2c(C)cc(OCc3ccc(F)cc3F)c(Br)c2=O)c1 (10 µM)
inactive: [1] 0 | [2] 0 | [3] 0 | [4] 0 | [5] 0 | [6] 0 | [7] 0 | [8] 0 | [9] 0 | [10] 0 | [11] 0 | [12] 0 | [13] 0 | [14] 0 | [15] 0 | [16] 0 | [17] 0 | [18] 0 | [19] 0 | [20] 0

O=C(Nc1cn[nH]c1-c1ccccn1)c1nn(C2CCNCC2)cc1Cl (10 µM)
inactive: [1] 0 | [2] 0 | [3] 0 | [4] 0 | [5] 0 | [6] 0 | [7] 0 | [8] 0 | [9] 0 | [10] 0 | [11] 0 | [12] 0 | [13] 0 | [14] 0 | [15] 0 | [16] 0 | [17] 0 | [18] 0 | [19] 0 | [20] 0
